Source: PMC6468270 (Chembiochem, 2019)
HELM strings list residues between dots; [ac] is acetyl, [am] amide, other brackets name non-standard units.

Assay: general procedure: Fmoc solid-phase peptide synthesis; Rink amide MBHA resin; HCTU or HATU (5 equiv) and DIPEA (5 equiv)
Settings: whole synthesis, 220 nm, scale of the general procedure 0.1 mmol

Substance	purity (crude or final not stated) [%]
PEPTIDE1{[ac].G.A.M.G.K.[PenGly].I.Q.L.[PenGly].R.R.I.R.G.E.R.A.G.C.A.[am]}$PEPTIDE1,PEPTIDE1,7:R3-11:R3$$$V2.0	> 90
PEPTIDE1{[ac].G.A.[PenGly].G.K.D.[PenGly].Q.L.A.R.R.I.R.G.E.R.A.[am]}$PEPTIDE1,PEPTIDE1,4:R3-8:R3$$$V2.0	> 90
PEPTIDE1{[ac].G.A.M.G.K.D.I.Q.L.A.R.R.I.R.G.E.R.A.[am]}$$$$V2.0	> 97
